# This is one part of the list.
# B1: SrpA (Streptococcus sanguis) (protein)
# chain: SSKSESTVNSQSASSETNRSSTNNGSTSSSSETARVRKRRATDTTPPTITVPSDIIAYRGEEFEFYFEITDDSGQVKNIELSTFGKPLGLNWLEYSEDNFNVPGNATSDNPLRVRVHGTVPLNEPIPADKNRAQFTRTIRAWDAAGNVSSNITFVIKYRAQTDKYNPADPTITYVDRLSSLSPSEKNAVEAAVRAANPQIPAAARITVSANGTVTITYPDSSTDTITANRVVKDLASSRSALT
# Experiments:
# Experiment in all cases: glycan array binding signal (z-score within array); higher = stronger binding
# Settings in all cases: glycan notation: IUPAC condensed, linker removed
# [1] = target: Neu5Ac(a2-3)Gal(b1-4)Glc
# Outline: (§1)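 Arrays were curated from the Consortium for Functional Glycomics database, 3228 in total, and kept only where the protein sequence was available. Binding is expressed as a within-array Z-score. This score was averaged across arrays of the same protein sequence at different concentrations or buffers and across linkers, and negative values can be read as non-binding.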
# [2] = target: Neu5Ac(a2-3)Gal(b1-4)GlcNAc
# Outline: as §1
# [3] = target: Neu5Ac(a2-3)Gal(b1-4)GlcNAc(b1-3)Gal(b1-3)GlcNAc
# Outline: as §1
# [4] = target: Neu5Ac(a2-3)Gal(b1-4)GlcNAc(b1-3)Gal(b1-4)GlcNAc
# Outline: as §1
# [5] = target: Neu5Ac(a2-3)Gal(b1-4)GlcNAc(b1-3)Gal(b1-4)GlcNAc(b1-3)Gal(b1-4)GlcNAc
# Outline: as §1
# [6] = target: Neu5Ac(a2-3)Gal(b1-4)GlcNAc(b1-3)Gal(b1-4)[Fuc(a1-3)]GlcNAc
# Outline: as §1
# [7] = target: Neu5Ac(a2-3)Gal(b1-4)GlcNAc(b1-6)[Gal(b1-3)]GalNAc
# Outline: as §1
# [8] = target: Neu5Ac(a2-3)Gal(b1-4)GlcNAc6S
# Outline: as §1
# [9] = target: Neu5Ac(a2-3)Gal(b1-4)[Fuc(a1-3)]GlcNAc
# Outline: as §1
# [10] = target: Neu5Ac(a2-3)Gal(b1-4)[Fuc(a1-3)]GlcNAc(b1-3)Gal
# Outline: as §1
# [11] = target: Neu5Ac(a2-3)Gal(b1-4)[Fuc(a1-3)]GlcNAc(b1-3)Gal(b1-4)GlcNAc
# Outline: as §1
# [12] = target: Neu5Ac(a2-3)Gal(b1-4)[Fuc(a1-3)]GlcNAc(b1-3)Gal(b1-4)[Fuc(a1-3)]GlcNAc(b1-3)Gal(b1-4)[Fuc(a1-3)]GlcNAc
# Outline: as §1
# [13] = target: Neu5Ac(a2-3)Gal(b1-4)[Fuc(a1-3)]GlcNAc6S
# Outline: as §1
# [14] = target: Neu5Ac(a2-3)Gal6S(b1-4)GlcNAc
# Outline: as §1
# [15] = target: Neu5Ac(a2-3)Gal6S(b1-4)[Fuc(a1-3)]GlcNAc
# Outline: as §1
# [16] = target: Neu5Ac(a2-3)GalNAc
# Outline: as §1
# [17] = target: Neu5Ac(a2-3)GalNAc(b1-4)GlcNAc
# Outline: as §1
# [18] = target: Neu5Ac(a2-3)[GalNAc(b1-4)]Gal(b1-4)Glc
# Outline: as §1
# [19] = target: Neu5Ac(a2-3)[GalNAc(b1-4)]Gal(b1-4)GlcNAc
# Outline: as §1
# [20] = target: Neu5Ac(a2-3)[Neu5Ac(a2-6)]GalNAc
# Outline: as §1
# [21] = target: Neu5Ac(a2-6)Gal
# Outline: as §1
# [22] = target: Neu5Ac(a2-6)Gal(b1-4)Glc
# Outline: as §1
# [23] = target: Neu5Ac(a2-6)Gal(b1-4)GlcNAc
# Outline: as §1
# [24] = target: Neu5Ac(a2-6)Gal(b1-4)GlcNAc(b1-2)Man(a1-3)[Neu5Ac(a2-6)Gal(b1-4)GlcNAc(b1-2)Man(a1-6)]Man(b1-4)GlcNAc(b1-4)GlcNAc
# Outline: as §1
# [25] = target: Neu5Ac(a2-6)Gal(b1-4)GlcNAc(b1-3)Gal(b1-4)GlcNAc
# Outline: as §1
# [26] = target: Neu5Ac(a2-6)Gal(b1-4)GlcNAc(b1-3)Gal(b1-4)[Fuc(a1-3)]GlcNAc(b1-3)Gal(b1-4)[Fuc(a1-3)]GlcNAc
# Outline: as §1
# [27] = target: Neu5Ac(a2-6)Gal(b1-4)GlcNAc6S
# Outline: as §1
# [28] = target: Neu5Ac(a2-6)GalNAc
# Outline: as §1
# [29] = target: Neu5Ac(a2-6)GalNAc(b1-4)GlcNAc
# Outline: as §1
# [30] = target: Neu5Ac(a2-8)Neu5Ac
# Outline: as §1
# [31] = target: Neu5Ac(a2-8)Neu5Ac(a2-3)Gal(b1-4)Glc
# Outline: as §1
# [32] = target: Neu5Ac(a2-8)Neu5Ac(a2-3)[GalNAc(b1-4)]Gal(b1-4)Glc
# Outline: as §1
# [33] = target: Neu5Ac(a2-8)Neu5Ac(a2-8)Neu5Ac
# Outline: as §1
# [34] = target: Neu5Ac(a2-8)Neu5Ac(a2-8)Neu5Ac(a2-3)Gal(b1-4)Glc
# Outline: as §1
# [35] = target: Neu5Ac(a2-8)Neu5Ac(a2-8)Neu5Ac(a2-3)[GalNAc(b1-4)]Gal(b1-4)Glc
# Outline: as §1
# [36] = target: Neu5Ac(a2-8)Neu5Ac(a2-8)Neu5Ac(a2-8)Neu5Ac(a2-3)[GalNAc(b1-4)]Gal(b1-4)Glc
# Outline: as §1
# [37] = target: Neu5Ac(b2-6)Gal(b1-4)GlcNAc
# Outline: as §1
# [38] = target: Neu5Ac(b2-6)GalNAc
# Outline: as §1
# [39] = target: Neu5Ac9Ac(a2-6)Gal(b1-4)GlcNAc
# Outline: as §1
# [40] = target: Neu5Gc(a2-3)Gal(b1-3)GlcNAc
# Outline: as §1
# [41] = target: Neu5Gc(a2-3)Gal(b1-3)[Fuc(a1-4)]GlcNAc
# Outline: as §1
# [42] = target: Neu5Gc(a2-3)Gal(b1-4)Glc
# Outline: as §1
# [43] = target: Neu5Gc(a2-3)Gal(b1-4)GlcNAc
# Outline: as §1
# [44] = target: Neu5Gc(a2-3)Gal(b1-4)[Fuc(a1-3)]GlcNAc
# Outline: as §1
# [45] = target: Neu5Gc(a2-6)Gal(b1-4)GlcNAc
# Outline: as §1
# [46] = target: Neu5Gc(a2-6)GalNAc
# Outline: as §1
binder,measurement,setting,value
B1,glycan array binding signal (z-score),[1],-0.441
same,glycan array binding signal (z-score),[2],-0.448
same,glycan array binding signal (z-score),[3],-0.961
same,glycan array binding signal (z-score),[4],0.367
same,glycan array binding signal (z-score),[5],-0.256
same,glycan array binding signal (z-score),[6],1.55
same,glycan array binding signal (z-score),[7],0.075
same,glycan array binding signal (z-score),[8],-0.575
same,glycan array binding signal (z-score),[9],-0.391
same,glycan array binding signal (z-score),[10],-0.439
same,glycan array binding signal (z-score),[11],1.25
same,glycan array binding signal (z-score),[12],-0.761
same,glycan array binding signal (z-score),[13],-0.966
same,glycan array binding signal (z-score),[14],-0.1
same,glycan array binding signal (z-score),[15],0.605
same,glycan array binding signal (z-score),[16],-0.137
same,glycan array binding signal (z-score),[17],-0.786
same,glycan array binding signal (z-score),[18],-0.615
same,glycan array binding signal (z-score),[19],-0.442
same,glycan array binding signal (z-score),[20],-0.566
same,glycan array binding signal (z-score),[21],0.013
same,glycan array binding signal (z-score),[22],-0.673
same,glycan array binding signal (z-score),[23],-0.311
same,glycan array binding signal (z-score),[24],0.184
same,glycan array binding signal (z-score),[25],-0.702
same,glycan array binding signal (z-score),[26],-0.215
same,glycan array binding signal (z-score),[27],0.054
same,glycan array binding signal (z-score),[28],5.01
same,glycan array binding signal (z-score),[29],-0.618
same,glycan array binding signal (z-score),[30],-0.726
same,glycan array binding signal (z-score),[31],-0.962
same,glycan array binding signal (z-score),[32],-0.576
same,glycan array binding signal (z-score),[33],-0.629
same,glycan array binding signal (z-score),[34],-0.596
same,glycan array binding signal (z-score),[35],-0.901
same,glycan array binding signal (z-score),[36],2.24
same,glycan array binding signal (z-score),[37],-0.856
same,glycan array binding signal (z-score),[38],-0.755
same,glycan array binding signal (z-score),[39],0.123
same,glycan array binding signal (z-score),[40],-0.727
same,glycan array binding signal (z-score),[41],-0.954
same,glycan array binding signal (z-score),[42],-0.335
same,glycan array binding signal (z-score),[43],-0.45
same,glycan array binding signal (z-score),[44],-0.203
same,glycan array binding signal (z-score),[45],-0.678
same,glycan array binding signal (z-score),[46],-0.031

# 3 entries from above, set out differently:
binder | measurement | setting | value
B1 | glycan array binding signal (z-score) | [22] | -0.673
same | glycan array binding signal (z-score) | [41] | -0.954
same | glycan array binding signal (z-score) | [43] | -0.45

# Reference: the supplement of paper PMC8728848
